Tags and fusion partners may be left off the protein sequences shown. Construct, isoform or probe ends are uncertain for at least one entry. The comparison behind a weaker result is the experiment's own reference, which may not be listed here.
Biological target: T1, H-NS (UniProt P0ACF8)
T1 sequence (looked up): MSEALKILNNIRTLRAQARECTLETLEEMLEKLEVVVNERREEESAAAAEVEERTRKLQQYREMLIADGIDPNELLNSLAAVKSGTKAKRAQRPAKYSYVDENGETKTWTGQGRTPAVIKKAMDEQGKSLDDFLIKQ
Experiment: EMSA
Details: 10 mM Tris-Cl pH 7.5, 10 mM MgCl2, 10 mM KCl, 100 mM NaCl, 0.5 mM DTT, 5% glycerol, 0.1% BSA, 1 mM spermidine, 25 °C, 5% PAGE in 1xTAE, recombinant protein, residues 1-137, protein details: 6xHis, label: none (GelRed stain), probe letters rebuilt from the primers and the …

AATAGTAGTACTCCTAACTGAGATATATTTGAATGAATACCTATAGGAAACCTCAATCGGTCAAAATTAGCCCAATAGATAAAAAGATAACCACACACGGAGTGATGTGGCTATCAGTCAATTACATTAAATATCATACAAAAATAAAATATCACTGATGTGACAACATCTATTTTCATTGATTTGATTCAATATAACAATAGATTGCAGTGGATTAACTTCCAGTTGCTTAAAAAATAAAGAAAAAAGTGCGGAAACAGGAGATTTTAAGTGATGTGTAAATTTATGAATGATTTTGTTTATTTATTTTGAAGAACATAAACCATTGTATTTTGTATGGATATGGTTAACTTAATGTTTATTATGATAATTAAGAATCACACTTACAATAACATCAATTAATAAATGGTTAATCATTTTTGATATATCGTAAGAATAATGTAGTTTTTAACACCATCCCTGGTATCTCAACTATCT (double strand) [fimE promoter]
binding result (MEP preincubated with H-NS (no change in mobility)): binds
binding result (MEcPP added after H-NS was bound to DNA (no inhibition)): binds
binding result (MEcPP preincubated with H-NS before DNA (concentration-dependent decrease)): binds more weakly
binding result (no metabolite, 240 nM H-NS, 30 nM DNA): binds

Reference: PMC11582573, “An evolutionarily conserved metabolite inhibits biofilm formation in Escherichia coli K-12” (Nature Communications, 2024)
